Results deposited as PubChem BioAssay AID504784 (Drosophila RNAi Screening Center, 2011).

- Assay: 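Fly genes whose silencing alters how much lipid cells keep in droplets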 (primary screen)
- System: Drosophila Kc167 embryonic cells
- Knock-down reagent: long dsRNA against Drosophila genes, about 250 ng dsRNA per well
- Duration: 4 days
- Treatment: cells fed 400 µM oleic acid bound to BSA
- Measured: 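Cells imaged and segmented; ratio of lipid droplet area to nuclear area, log-transformed, then normalised as a B-score over the screen; higher means more stored lipid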
- Reading the numbers: droplet/nuclear area B-score: higher = more stored lipid (overstorage)
The screen tested about 17,000 reagents; this is a random part of those with a known target gene and a result. 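Each column is one replicate's B-score; the combined score over replicates was not deposited, so single values may mislead.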 No sequences are given here.

With knock-down of cnn [DRSC05422], the screen gave droplet/nuclear area B-score, replicate 1 = -1.23; droplet/nuclear area B-score, replicate 2 = 0.0757.
With knock-down of cnn [DRSC07596], the screen gave droplet/nuclear area B-score, replicate 1 = -0.56; droplet/nuclear area B-score, replicate 2 = 1.42.
Depletion of Kap-alpha1 [DRSC11356] came out at: droplet/nuclear area B-score, replicate 1 = 1.29; droplet/nuclear area B-score, replicate 2 = 1.17.
CG10459 [DRSC05991] gave droplet/nuclear area B-score, replicate 1 = 1.84; droplet/nuclear area B-score, replicate 2 = 1.04.
After knock-down of CG10459 [DRSC22092], the screen gave droplet/nuclear area B-score, replicate 1 = -0.675; droplet/nuclear area B-score, replicate 2 = 0.48.
CG13674 [DRSC10033] showed droplet/nuclear area B-score, replicate 1 = 1.89; droplet/nuclear area B-score, replicate 2 = -0.0825.
With knock-down of CG13876 [DRSC08346], the screen gave droplet/nuclear area B-score, replicate 1 = -0.0158; droplet/nuclear area B-score, replicate 2 = -0.581.
For CG32022 [DRSC09678] the deposit lists droplet/nuclear area B-score, replicate 1 = 0.0174; droplet/nuclear area B-score, replicate 2 = -0.415.
Lap1 [DRSC07454] showed droplet/nuclear area B-score, replicate 1 = 1.09; droplet/nuclear area B-score, replicate 2 = -0.539.
With knock-down of CG9541 [DRSC03257], the screen gave droplet/nuclear area B-score, replicate 1 = 0.199; droplet/nuclear area B-score, replicate 2 = -0.633.

Ordered by “droplet/nuclear area B-score, replicate 2” (descending): some entries from above
Kap-alpha1 [DRSC11356] | droplet/nuclear area B-score, replicate 1: 1.29; droplet/nuclear area B-score, replicate 2: 1.17
CG10459 [DRSC05991] | droplet/nuclear area B-score, replicate 1: 1.84; droplet/nuclear area B-score, replicate 2: 1.04

The list goes on:
For Naprt [DRSC00630], the values are droplet/nuclear area B-score, replicate 1 = 0.0522; droplet/nuclear area B-score, replicate 2 = 0.667.
Against CG32833 [DRSC04596], the values are droplet/nuclear area B-score, replicate 1 = 0.674; droplet/nuclear area B-score, replicate 2 = -0.317.
For CG11655 [DRSC19413], the entry reads droplet/nuclear area B-score, replicate 1 = 3.62; droplet/nuclear area B-score, replicate 2 = -0.183.
After knock-down of Prosbeta5R2 [DRSC01617] the results were droplet/nuclear area B-score, replicate 1 = 0.902; droplet/nuclear area B-score, replicate 2 = -3.04.
Silencing of CG33278 [DRSC10336] gave: droplet/nuclear area B-score, replicate 1 = -0.359; droplet/nuclear area B-score, replicate 2 = -0.176.
With knock-down of CG31663 [DRSC00078], the screen gave droplet/nuclear area B-score, replicate 1 = -0.125; droplet/nuclear area B-score, replicate 2 = 0.896.
CG31663 [DRSC00389] gave droplet/nuclear area B-score, replicate 1 = 2.17; droplet/nuclear area B-score, replicate 2 = 0.
Silencing of CG31663 [DRSC00390] gave: droplet/nuclear area B-score, replicate 1 = 0.218; droplet/nuclear area B-score, replicate 2 = 0.646.
For CG31663 [DRSC00393], the values are droplet/nuclear area B-score, replicate 1 = 1.75; droplet/nuclear area B-score, replicate 2 = 1.03.
